These are literature values, as cited in publication PMC9693145, “Optimization of Extraction Conditions and Cytotoxic Activity of Rapanone in Comparison to Its Homologue, Embelin” (Molecules, 2022).

This data set has as its system PC3. Particulars: read-out: IC50 of doxorubicin towards PC3 lines; cited from earlier work.

For orientation: IC50 means the point on the concentration scale where inhibition reaches its midpoint. As to `COc1cccc2c1C(=O)c1c(O)c3c(c(O)c1C2=O)C[C@@](O)(C(=O)CO)C[C@@H]3O[C@H]1C[C@H](N)[C@H](O)[C@H](C)O1` [Doxorubicin], the IC50 is 0.51 µM.
